Results as given in US11284615B2, “Cryopreservation using sucralose” (East Carolina University, priority 2015, dated 2022).

Test: Merocyanine 540 fluorescent probe in model membranes
Type: physicochemical
Settings: increasing amounts of sucralose

OC[C@H]1O[C@H](O[C@]2(CCl)O[C@H](CCl)[C@@H](O)[C@@H]2O)[C@H](O)[C@@H](O)[C@H]1Cl [sucralose, 1,6-Dichloro-1,6-dideoxy-β-D-fructofuranosyl-4-chloro-4-deoxy-α-D-galactopyranoside]
fluidity of model membranes: increase in fluidity
polarity of model membranes: decrease in polarity
